Literature values in patent US8013163B2 (Astex Therapeutics Limited, priority 2005, dated 2011).
For at least one compound, name, drawing or mass did not settle the structure.

Tested on: symptomatic CLL patients
Conditions: initial therapy; cited from earlier work

Q: For `Nc1nc(F)nc2c1ncn2[C@@H]1O[C@H](CO)[C@@H](O)[C@@H]1O` [fludarabine], which “duration of progression-free survival” value is on record?
A: 33 months
